From the supplement of paper PMC4604168 (melanoma cell lines)
The list shows a part of the results. Many values rest on one well or one pass, so single values are uncertain.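 Imaging used 1,536-well plates; nuclei positive for cleaved PARP by antibody were divided by total DNA-stained nuclei to yield the apoptosis fraction. Doses for screening kept most cells viable, and cell lines differ markedly in resting and induced cleaved-PARP levels.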

Key:
Assay in all cases: cleaved PARP positive nuclei fraction relative to DMSO control; melanoma cells; higher = more apoptosis
Conditions in all cases: library dose: low library concentration; 72 h
[1] = tested on: MZ2-MEL
[2] = tested on: MeWo
[3] = tested on: RPMI7951
[4] = tested on: RVH-421
[5] = tested on: SkMel28
[6] = tested on: SkMel2
[7] = tested on: SkMel30
[8] = tested on: UACC62
[9] = tested on: WM115
[10] = tested on: WM1716
[11] = tested on: WM1745
[12] = tested on: WM3526
[13] = tested on: WM3619
[14] = tested on: WM451Lu

Compound | cleaved PARP positive nuclei fraction [1] | cleaved PARP positive nuclei fraction [2] | cleaved PARP positive nuclei fraction [3] | cleaved PARP positive nuclei fraction [4] | cleaved PARP positive nuclei fraction [5] | cleaved PARP positive nuclei fraction [6] | cleaved PARP positive nuclei fraction [7] | cleaved PARP positive nuclei fraction [8] | cleaved PARP positive nuclei fraction [9] | cleaved PARP positive nuclei fraction [10] | cleaved PARP positive nuclei fraction [11] | cleaved PARP positive nuclei fraction [12] | cleaved PARP positive nuclei fraction [13] | cleaved PARP positive nuclei fraction [14]
CS(=O)(=O)c1ccc(C(=O)Nc2ccc(Cl)c(-c3ccccn3)c2)c(Cl)c1 [vismodegib] + C#Cc1cccc(Nc2ncnc3cc(OCCOC)c(OCCOC)cc23)c1 [erlotinib] (first compound 1 µM, partner dose 0.8 µM) | 98.3% | 818% | 123% | 276% | 71.3% | 93.8% | 130% | 355% | 60.1% | 1490% | 109% | 88.8% | 76.3% | 93.7%
C[C@@H](N)c1ccc(C(=O)Nc2ccnc3[nH]ccc23)cc1 + COc1ccc(C2=N[C@@H](c3ccc(Cl)cc3)[C@@H](c3ccc(Cl)cc3)N2C(=O)N2CCNC(=O)C2)c(OC(C)C)c1 [Nutlin-3] (first compound 0.4 µM, partner dose 0.1 µM) | 289% | 213% | 99% | 189% | 109% | 57% | 41.2% | 131% | 163% | 96.2% | 103% | 83.7% | 97.4% | 63.1%
Cn1cnc2c(F)c(Nc3ccc(Br)cc3Cl)c(C(=O)NOCCO)cc21 [selumetinib] + Cc1cc(Nc2cc(N3CCN(C)CC3)nc(/C=C/c3ccccc3)n2)n[nH]1 [ENMD2076] (first compound 0.015 µM, partner dose 0.04 µM) | 350% | 111% | 124% | 124% | 41.5% | 9830% | 57.4% | 178% | 102% | 28.8% | 105% | 62.4% | 122% | 117%
CC(=O)O[C@@]12CO[C@@H]1C[C@H](O)[C@@]1(C)C(=O)[C@H](O)C3=C(C)[C@@H](OC(=O)[C@H](O)[C@@H](NC(=O)OC(C)(C)C)c4ccccc4)C[C@@](O)([C@@H](OC(=O)c4ccccc4)[C@H]21)C3(C)C [Docetaxel] + CCCS(=O)(=O)Nc1ccc(F)c(C(=O)c2c[nH]c3ncc(Cl)cc23)c1F [PLX4720] (first compound 0.0001 µM, partner dose 0.08 µM) | 915% | 440% | 198% | 309% | 593% | 448% | 415% | 756% | 295% | 173% | 159% | 301% | 119% | 50.8%
Cn1sc(=O)n(Cc2ccccc2)c1=O + C[C@]1(O)C[C@@H](c2nc(-c3ccc4ccc(-c5ccccc5)nc4c3)c3c(N)nccn32)C1 [OSI906] (first compound 0.4 µM, partner dose 0.4 µM) | 111% | 123% | 123% | 52.1% | 84.8% | 134% | 35.6% | 92% | 125% | 177% | 127% | 49.2% | 190% | 52.6%
Cn1sc(=O)n(Cc2ccccc2)c1=O + C#Cc1cccc(Nc2ncnc3cc(OCCOC)c(OCCOC)cc23)c1 [erlotinib] (first compound 0.4 µM, partner dose 0.8 µM) | 86.7% | 93.5% | 154% | 143% | 46.8% | 72.6% | 1140% | 51.3% | 70.9% | 118% | 115% | 29.5% | 88.3% | 191%
CC1(C)CCC(c2ccc(Cl)cc2)=C(CN2CCN(c3ccc(C(=O)NS(=O)(=O)c4ccc(N[C@H](CCN5CCOCC5)CSc5ccccc5)c(S(=O)(=O)C(F)(F)F)c4)cc3)CC2)C1 + CN1CCN(c2ccc3nc(-c4c(N)c5c(F)cccc5[nH]c4=O)[nH]c3c2)CC1 [Dovitinib] (first compound 0.4 µM, partner dose 0.1 µM) | 279% | 283% | 77.8% | 153% | 336% | 172% | 194% | 226% | 223% | 343% | 1040% | 100% | 102% | 133%
CC(=O)O[C@@]12CO[C@@H]1C[C@H](O)[C@@]1(C)C(=O)[C@H](O)C3=C(C)[C@@H](OC(=O)[C@H](O)[C@@H](NC(=O)OC(C)(C)C)c4ccccc4)C[C@@](O)([C@@H](OC(=O)c4ccccc4)[C@H]21)C3(C)C [Docetaxel] + C#Cc1cccc(Nc2ncnc3cc(OCCOC)c(OCCOC)cc23)c1 [erlotinib] (first compound 0.0001 µM, partner dose 0.8 µM) | 524% | 1010% | 196% | 119% | 142% | 824% | 599% | 346% | 449% | 608% | 260% | 188% | 139% | 74.9%
CCCCCCCCc1ccc(CCC(N)(CO)CO)cc1 [fingolimod] + CN1CCN(c2ccc3nc(-c4c(N)c5c(F)cccc5[nH]c4=O)[nH]c3c2)CC1 [Dovitinib] (first compound 2 µM, partner dose 0.1 µM) | 68.8% | 74.7% | 51.5% | 39.3% | 86.4% | 66.1% | 20.3% | 65.4% | 89.7% | 466% | 117% | 83.3% | 97.5% | 117%
CCCCCCCCc1ccc(CCC(N)(CO)CO)cc1 [fingolimod] + COCC[n+]1c2c(n(Cc3cnccn3)c1C)C(=O)c1ccccc1C2=O [YM155] (first compound 2 µM, partner dose 0.0004 µM) | 150% | 28.8% | 122% | 58.5% | 93% | 102% | 90% | 43.9% | 229% | 46.1% | 105% | 200% | 103% | 112%
COc1ccc(C2=N[C@@H](c3ccc(Cl)cc3)[C@@H](c3ccc(Cl)cc3)N2C(=O)N2CCNC(=O)C2)c(OC(C)C)c1 [Nutlin-3] + CNC(=O)c1cc(Oc2ccc(NC(=O)Nc3ccc(Cl)c(C(F)(F)F)c3)cc2)ccn1 [sorafenib] (first compound 0.1 µM, partner dose 0.4 µM) | 53.7% | 50.4% | 80.1% | 234% | 83.6% | 61.6% | 87.6% | 82.4% | 81.2% | 58.8% | 105% | 249% | 78.8% | 173%
C[C@@H](N)c1ccc(C(=O)Nc2ccnc3[nH]ccc23)cc1 + Cn1c(=O)n(-c2ccc(C(C)(C)C#N)cc2)c2c3cc(-c4cnc5ccccc5c4)ccc3ncc21 [NVP-BEZ235] (first compound 0.4 µM, partner dose 0.004 µM) | 66.7% | 198% | 73.4% | 62.2% | 258% | 171% | 53.8% | 119% | 108% | 216% | 120% | 89.7% | 123% | 193%
CCCCCCCCc1ccc(CCC(N)(CO)CO)cc1 [fingolimod] + O=C(O)[C@@H]1[O][Sb](=[O])([O][Sb]2(=[O])[O][C@H]([C@H](O)CO)[C@H](O)[C@H](C(=O)O)[O]2)[O][C@H]([C@H](O)CO)[C@@H]1O [stibogluconate] (first compound 2 µM, partner dose 2 µM) | 73.8% | 98.7% | 68.9% | 79.8% | 54.8% | 84.4% | 36.6% | 74.9% | 122% | 38.7% | 95.4% | 294% | 72.4% | 103%
CCN(CC)CCNC(=O)c1c(C)[nH]c(/C=C2\C(=O)Nc3ccc(F)cc32)c1C [sunitinib] + CC(=O)O[C@@]12CO[C@@H]1C[C@H](O)[C@@]1(C)C(=O)[C@H](O)C3=C(C)[C@@H](OC(=O)[C@H](O)[C@@H](NC(=O)OC(C)(C)C)c4ccccc4)C[C@@](O)([C@@H](OC(=O)c4ccccc4)[C@H]21)C3(C)C [Docetaxel] (first compound 0.4 µM, partner dose 0.0001 µM) | 523% | 496% | 206% | 307% | 549% | 370% | 643% | 193% | 252% | 111% | 138% | 333% | 100% | 89.8%
C[C@]1(O)C[C@@H](c2nc(-c3ccc4ccc(-c5ccccc5)nc4c3)c3c(N)nccn32)C1 + Cn1c(=O)n(-c2ccc(C(C)(C)C#N)cc2)c2c3cc(-c4cnc5ccccc5c4)ccc3ncc21 [NVP-BEZ235] (first compound 0.4 µM, partner dose 0.004 µM) | 69.2% | 159% | 76.6% | 46.3% | 107% | 135% | 123% | 108% | 214% | 38.3% | 121% | 102% | 112% | 151%
CC1(C)CCC(c2ccc(Cl)cc2)=C(CN2CCN(c3ccc(C(=O)NS(=O)(=O)c4ccc(N[C@H](CCN5CCOCC5)CSc5ccccc5)c(S(=O)(=O)C(F)(F)F)c4)cc3)CC2)C1 + Cc1cc(Nc2cc(N3CCN(C)CC3)nc(/C=C/c3ccccc3)n2)n[nH]1 [ENMD2076] (first compound 0.4 µM, partner dose 0.04 µM) | 196% | 193% | 73.1% | 193% | 161% | 145% | 198% | 133% | 308% | 131% | 2450% | 451% | 138% | 113%
Cn1sc(=O)n(Cc2ccccc2)c1=O + CC(=O)O[C@@]12CO[C@@H]1C[C@H](O)[C@@]1(C)C(=O)[C@H](O)C3=C(C)[C@@H](OC(=O)[C@H](O)[C@@H](NC(=O)OC(C)(C)C)c4ccccc4)C[C@@](O)([C@@H](OC(=O)c4ccccc4)[C@H]21)C3(C)C [Docetaxel] (first compound 0.4 µM, partner dose 0.0001 µM) | 728% | 449% | 63.3% | 171% | 198% | 498% | 697% | 407% | 160% | 167% | 178% | 72.7% | 147% | 153%
Cn1sc(=O)n(Cc2ccccc2)c1=O + COc1ccc(Cl)c(Nc2nc3ccccc3nc2NS(=O)(=O)c2cccc(NC(=O)C(C)(C)N)c2)c1 [XL147] (first compound 0.4 µM, partner dose 0.8 µM) | 71.3% | 203% | 170% | 50.9% | 82.2% | 149% | 147% | 77% | 75.6% | 82.4% | 98.3% | 36.4% | 95.1% | 71.5%

A few values from the list.
Cn1sc(=O)n(Cc2ccccc2)c1=O + C[C@]1(O)C[C@@H](c2nc(-c3ccc4ccc(-c5ccccc5)nc4c3)c3c(N)nccn32)C1 [OSI906] (first compound 0.4 µM, partner dose 0.4 µM) | cleaved PARP positive nuclei fraction [13]: 190%
CS(=O)(=O)c1ccc(C(=O)Nc2ccc(Cl)c(-c3ccccn3)c2)c(Cl)c1 [vismodegib] + C#Cc1cccc(Nc2ncnc3cc(OCCOC)c(OCCOC)cc23)c1 [erlotinib] (first compound 1 µM, partner dose 0.8 µM) | cleaved PARP positive nuclei fraction [1]: 98.3%
